AC50 and cell number change data for 38 molecules are collected here from PubChem BioAssay AID2685 (National Center for Advancing Translational Sciences (NCATS), 2010).

The experiment can be described thus: qHTS Assay for Lipid Storage Modulators in Drosophila S3 Cells.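 As to cell number change: cells counted by Cell Tracker Red CMTPX staining in the red channel.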 As to conditions: BODIPY lipid droplet fluorescence, 18-24 h; for cell number change: measured here: cell count max response, cells fed with added oleic acid. The essentials:
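Drosophila S3 cells got compounds at several concentrations plus oleic acid (400 uM solution). Laser-scanning cytometry with 488 nm excitation read lipid droplets at 500-530 nm and cells at 575-640 nm. Percent activity was relative to 20 uM Triacsin C.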
Background: In qHTS, concentration-response curves come from the screen itself.

Where [1] appears, read: measured here: cell number channel AC50, cells fed with added oleic acid.
Where [2] appears, read: measured here: lipid fluorescence (Fed channel) AC50, cells fed with added oleic acid.

The list shows a part of the results. Shown are side measurements of this screen, not its main read-out; they come without a call. The list favours compounds with an active or inconclusive main result. Potencies come from curve fits of mixed quality, noted in brackets.

`COc1ccc(NC(=S)NC(NC(=O)c2ccc(Cl)cc2Cl)C(Cl)(Cl)Cl)c([N+](=O)[O-])c1` (stereo not given): the concentration at half-maximal activity (AC50) reads like this: under setting [1], 1.64 µM [rising, partial curve]; under setting [2], 1.3 µM [rising, partial curve].

With `CN(C)S(=O)(=O)c1ccc(NC(=O)Cn2ccsc2=N)cc1`, the cell number change is -85.8%. The half-maximal activity concentration (AC50) under setting [1] is 29.1 µM [falling, single point].

`COc1ccc(CCNS(=O)(=O)c2cccc3nsnc23)cc1OC`: the cell number change turned out to be 2.18%. Further, the AC50 under setting [2] is 0.461 µM [rising, single point].

With `Cc1ccc(N(CCC#N)C(=O)COC(=O)C2CCN(S(=O)(=O)c3ccc4c(c3)OCCO4)CC2)cc1`, the cell number change came out at 37.5%. In addition, the concentration at half-maximal activity (AC50) under setting [1] is 10.3 µM [rising, single point].

Turning to `COc1ccc([N+](=O)[O-])cc1NC(=O)C(C)OC(=O)C1CCCC1` (stereo not given), the cell number change was 1.08%. For the same molecule, the AC50 under setting [2] was 29.1 µM [falling, single point].

Take `CCN(CC)CCN(C(=O)c1cc2ccccc2cc1OC)c1nc2ccc(F)cc2s1`: the cell number change stood at 25.1%. In addition, the AC50 under setting [2] is 16.4 µM [rising, partial curve].

As to `CC(=O)COC(=O)c1ccc2noc(-c3ccccc3)c2c1`, the cell number change is 20.5%. Under setting [2], the AC50 was 0.00461 µM [falling, partial curve, poor fit].

Turning to `CC(C)OC(=O)c1ccc(S(N)(=O)=O)o1`, the cell number change is -72.5%. Further, under setting [1], the concentration at half-maximal activity (AC50) is 18.4 µM [falling, single point]. Under setting [2], the AC50 is 25.9 µM [falling, single point].

In the case of `CCOC(=O)CC1C(=O)NCCN1C1CCCC1` (stereo not given), the cell number change was -21.4%. Besides, under setting [2], the AC50 was 2.31 µM [falling, full curve, poor fit].

Take `CCn1c(=O)c(C(=O)NCc2ccc(OC)cc2)c(O)c2ccccc21`: the AC50 under setting [2] was 0.58 µM [rising, single point].

For the molecule `Cc1ccc(CNC(=O)C2CCCN2S(=O)(=O)c2ccc3c(c2)C(C)(C)C(=O)N3C)cc1` (stereo not given), the cell number change stood at 21%. Moreover, under setting [2], the AC50 is 29.1 µM [rising, single point].

Turning to `CCC(CCC(=O)Nc1ccn(-c2ccccc2)n1)C(=O)O` (stereo not given), the cell number change stood at 13.9%.

Turning to `CCN1C(=O)C(CC(=O)Nc2ccc(C)cc2C)Nc2cc(S(=O)(=O)N(C)C)ccc21` (stereo not given), the cell number change is -7.93%. Moreover, the half-maximal activity concentration (AC50) under setting [2] was 0.58 µM [falling, single point].

For `COc1cc(NC(=O)CSc2ccc(-c3ccccn3)nn2)cc(OC)c1`, the cell number change was -18.1%. Further, the AC50 under setting [2] is 29.1 µM [falling, single point].

For the molecule `CCOC(=O)/C(=C/c1ccc(OC(=O)c2ccncc2)cc1)C(C)=O`, the cell number change is -37.5%. Also, the AC50 under setting [2] was 10.3 µM [falling, partial curve].

As to `Cc1cc(-c2[nH]nc3c2C(c2ccsc2)C(C#N)=C(N)O3)c(C)s1` (stereo not given), the cell number change was found to be 11%. Besides, the AC50 under setting [2] was 1.84 µM [rising, partial curve].

Turning to `CCCCn1c(N)c(N(CC(C)C)C(=O)COC(=O)Cc2cccc(OC)c2)c(=O)[nH]c1=O`, the AC50 under setting [1] is 2.91 µM [rising, partial curve].

`COc1ccc2sc3c(=O)[nH]c4ccccc4c3c2c1`: the cell number change was -37.1%. Moreover, the concentration at half-maximal activity (AC50) under setting [1] was 5.17 µM [falling, full curve]. Further, the AC50 under setting [2] was 2.31 µM [falling, partial curve, poor fit].

On to `FC(F)(F)c1ccc(NC(=S)NCc2ccccc2)cc1`, for which the cell number change was -46.1%. The concentration at half-maximal activity (AC50) under setting [1] is 29.1 µM [falling, single point]. Moreover, the AC50 under setting [2] was 2.59 µM [rising, single point].

As to `CN1CN(C)c2ccc([N+](=O)[O-])c3cccc1c23`, the cell number change was determined as 6.94%.

For the molecule `COC(=O)COc1ccc(S(=O)(=O)Nc2cc([N+](=O)[O-])ccc2C)cc1`, the cell number change is 54.6%.

Take `CC(=O)N1CCc2c(sc(NC(=O)C3COc4ccccc4O3)c2C(N)=O)C1` (stereo not given): the cell number change was -18.2%. Moreover, under setting [2], the concentration at half-maximal activity (AC50) is 0.13 µM [falling, full curve, poor fit].

For `CCOc1ccccc1OCCOc1ccccc1OC(C)C`, the AC50 under setting [2] is 6.51 µM [rising, single point].

`CC(=O)Nc1ccc(S(=O)(=O)N[C@@H](C)C(=O)OCC(=O)NC2CCCC2)cc1`: the cell number change was found to be 15.6%. Moreover, the AC50 under setting [2] was 6.51 µM [falling, single point].

Take `CCC1CCCCN1C(=O)CN1C(=O)c2ccccc2S1(=O)=O` (stereo not given): the half-maximal activity concentration (AC50) under setting [1] is 2.91 µM [rising, single point] and the concentration at half-maximal activity (AC50) under setting [2] is 29.1 µM [rising, single point].

As for `CCOC(=O)c1ccc(NS(=O)(=O)N2CCCCCC2)cc1`, the cell number change is -29.1%.

For `O=C(NCC(c1ccco1)N1CCCC1)c1ccccc1Sc1ccc(C(F)(F)F)cc1[N+](=O)[O-]` (stereo not given), the cell number change turned out to be 83.5%. The AC50 under setting [1] was 10.3 µM [rising, partial curve].

Regarding `CC(=O)c1ccc(S(=O)(=O)Nc2ccc(-c3ccc4nnc(C)n4n3)cc2)cc1`, the cell number change is -3.74%. Besides, under setting [1], the AC50 is 0.82 µM [falling, single point].

In the case of `CCCCNS(=O)(=O)c1ccc(NC(=O)C2c3ccccc3Oc3ccccc32)cc1`, the cell number change is -17.5%. The AC50 under setting [2] was 16.4 µM [falling, single point].

Turning to `Cc1ccc(S(=O)(=O)NCC(=O)OC(C)C(=O)NC(=O)NC2CCCCC2)cc1C` (stereo not given), the cell number change was -1.46%. Also, the AC50 under setting [1] is 4.11 µM [rising, partial curve]. Also, the AC50 under setting [2] is 29.1 µM [falling, single point].

With `COc1ccc(NC(=O)C2CCCN2S(=O)(=O)c2ccc(C)cc2)cc1` (stereo not given), the cell number change was 22.2%.

Turning to `Oc1cccc(C=Nc2cccc3ccccc23)c1O`, the cell number change is -37%. For the same molecule, the AC50 under setting [1] was 6.51 µM [falling, single point].

Consider `CCOC(=O)c1sc(NC(=O)c2ccoc2C)c(C(N)=O)c1C`, for which the AC50 under setting [2] was 6.51 µM [falling, partial curve].

Regarding `Cc1cc(N2CCN(C)CC2)nc2ccc(NC(=O)CCC(=O)NCCc3ccc(Cl)cc3)cc12`, the cell number change amounted to 1.39%.

As for `COC(=O)c1cc(Br)c(=O)n(CCN2CCOCC2)c1`, the AC50 under setting [1] is 0.58 µM [falling, full curve].

Regarding `O=C(CCCc1nc2ccccc2s1)NNC(=O)CCN1CCN(Cc2ccccc2)CC1`, the cell number change worked out at 71.9%.

As to `Cc1ccc(Nc2c(-c3ccccn3)nc3cc(C)ccn23)cc1`, the cell number change is -72.4%. The AC50 under setting [1] is 29.1 µM [falling, single point]. Further, the AC50 under setting [2] was 18.4 µM [falling, single point].

Consider `COc1ccc(CCNC(=O)CSc2cn(Cc3cccc(C)c3)c3ccccc23)cc1OC`, for which the cell number change is -41.5%. For the same molecule, under setting [1], the AC50 was 16.4 µM [falling, single point]. Also, the AC50 under setting [2] is 20.6 µM [falling, partial curve].

As usually defined, the AC50 is the concentration giving half of the maximal activity seen. The low end stands for greater potency, the high end for weaker potency.
